Results deposited as PubChem BioAssay AID1259254 (NCATS, 2017)
Shown is a random part of about 59,000 reagents. About 1,550 of them (2.6%) were called active. 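G2 share is only a proxy for re-replication; each gene was hit by three separate siRNAs, and active genes were retested.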 Reagents against one gene are numbered here. Further read-outs or replicates are left out here. The record does not give: the amount of reagent.

- Purpose: 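Genome-wide screen for genes that prevent DNA re-replication in cancer cells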 (primary screen)
- Cells: human HCT116 colorectal cancer cells
- Reagent: single siRNA against human genes
- Duration: 3 days
- Measured: 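Nuclei stained with Hoechst and imaged; cell-cycle phase assigned by DNA content; G2 share scaled per plate, non-targeting siRNA 0%, GMNN siRNA 100%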
- Scale: G2 robust z-score and G2 cells, % of GMNN control: higher = more G2 cells, more excess DNA replication
- Call rule: 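Active siRNAs have a G2 robust z of 5 or more median absolute deviations over the median, which in these data means about 38% or higher of GMNN control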

gene | reagent no. | G2 robust z-score | G2 cells, % of GMNN control | call
ABT1 (activator of basal transcription 1) | 1 | 2.92 | 23.5 | inactive
ABT1 (activator of basal transcription 1) | 2 | -0.0401 | 2.69 | inactive
ABT1 (activator of basal transcription 1) | 3 | 4.08 | 31.7 | inactive
BCORL1 (BCL6 corepressor like 1) | 1 | -0.294 | 0.902 | inactive
BCORL1 (BCL6 corepressor like 1) | 2 | 3.55 | 27.9 | inactive
BCORL1 (BCL6 corepressor like 1) | 3 | -0.358 | 0.445 | inactive
ZNF521 (zinc finger protein 521) | 1 | -0.234 | 1.32 | inactive
ZNF521 (zinc finger protein 521) | 2 | -1.05 | -4.39 | inactive
ZNF521 (zinc finger protein 521) | 3 | 0.0203 | 3.11 | inactive
CST9 (cystatin 9) | 1 | -0.708 | -2.01 | inactive
CST9 (cystatin 9) | 2 | -0.85 | -3.01 | inactive
CST9 (cystatin 9) | 3 | -0.212 | 1.47 | inactive
RPL31P45 (ribosomal protein L31 pseudogene 45) | 1 | -0.497 | -0.532 | inactive
RPL31P45 (ribosomal protein L31 pseudogene 45) | 2 | -0.337 | 0.597 | inactive
RPL31P45 (ribosomal protein L31 pseudogene 45) | 3 | -0.554 | -0.929 | inactive
AGPAT2 (1-acylglycerol-3-phosphate O-acyltransferase 2) | 1 | -1.26 | -5.91 | inactive
AGPAT2 (1-acylglycerol-3-phosphate O-acyltransferase 2) | 2 | 0.754 | 8.27 | inactive
AGPAT2 (1-acylglycerol-3-phosphate O-acyltransferase 2) | 3 | -0.242 | 1.26 | inactive
STAR (steroidogenic acute regulatory protein) | 1 | 1.96 | 16.8 | inactive
STAR (steroidogenic acute regulatory protein) | 2 | 0.783 | 8.47 | inactive
STAR (steroidogenic acute regulatory protein) | 3 | 5.22 | 39.7 | active
SPG11 (SPG11 vesicle trafficking associated, spatacsin) | 1 | 0.283 | 4.96 | inactive
SPG11 (SPG11 vesicle trafficking associated, spatacsin) | 2 | -0.835 | -2.91 | inactive
SPG11 (SPG11 vesicle trafficking associated, spatacsin) | 3 | -1.01 | -4.15 | inactive
CYP1B1 (cytochrome P450 family 1 subfamily B member 1) | 1 | -1.04 | -4.35 | inactive
CYP1B1 (cytochrome P450 family 1 subfamily B member 1) | 2 | 2.29 | 19 | inactive
CYP1B1 (cytochrome P450 family 1 subfamily B member 1) | 3 | -1.16 | -5.22 | inactive
SP140L (SP140 like nuclear body protein) | 1 | 0.952 | 9.66 | inactive
SP140L (SP140 like nuclear body protein) | 2 | -0.768 | -2.44 | inactive
SP140L (SP140 like nuclear body protein) | 3 | -0.691 | -1.89 | inactive
SIKE1 (suppressor of IKBKE 1) | 1 | 6.96 | 51.9 | active
SIKE1 (suppressor of IKBKE 1) | 2 | -0.743 | -2.26 | inactive
SIKE1 (suppressor of IKBKE 1) | 3 | -0.00819 | 2.91 | inactive
HOXB9 (homeobox B9) | 1 | -0.267 | 1.09 | inactive
HOXB9 (homeobox B9) | 2 | -0.765 | -2.42 | inactive
HOXB9 (homeobox B9) | 3 | -0.478 | -0.394 | inactive
POU6F2 (POU class 6 homeobox 2) | 1 | -0.273 | 1.05 | inactive
POU6F2 (POU class 6 homeobox 2) | 2 | -0.97 | -3.86 | inactive
POU6F2 (POU class 6 homeobox 2) | 3 | -0.376 | 0.32 | inactive
AFP (alpha fetoprotein) | 1 | -0.952 | -3.73 | inactive
AFP (alpha fetoprotein) | 2 | 1.7 | 14.9 | inactive
AFP (alpha fetoprotein) | 3 | 0.784 | 8.49 | inactive
DCAF10 (DDB1 and CUL4 associated factor 10) | 1 | -0.782 | -2.54 | inactive
DCAF10 (DDB1 and CUL4 associated factor 10) | 2 | 0.462 | 6.22 | inactive
DCAF10 (DDB1 and CUL4 associated factor 10) | 3 | -0.381 | 0.286 | inactive
MXRA8 (matrix remodeling associated 8) | 1 | -1.41 | -6.92 | inactive
MXRA8 (matrix remodeling associated 8) | 2 | -0.365 | 0.397 | inactive
MXRA8 (matrix remodeling associated 8) | 3 | -0.692 | -1.9 | inactive
SLC8A1 | 1 | -1.2 | -5.45 | inactive
SLC8A1 | 2 | -0.568 | -1.03 | inactive
SLC8A1 | 3 | -0.837 | -2.92 | inactive
ANKS3 (ankyrin repeat and sterile alpha motif domain containing 3) | 1 | 0.731 | 8.11 | inactive
ANKS3 (ankyrin repeat and sterile alpha motif domain containing 3) | 2 | 0.732 | 8.12 | inactive
ANKS3 (ankyrin repeat and sterile alpha motif domain containing 3) | 3 | -0.506 | -0.591 | inactive
UCA1 (urothelial cancer associated 1) | 1 | -0.412 | 0.0664 | inactive
UCA1 (urothelial cancer associated 1) | 2 | 1.39 | 12.8 | inactive
UCA1 (urothelial cancer associated 1) | 3 | 1.73 | 15.1 | inactive
CATSPER1 (cation channel sperm associated 1) | 1 | 2.9 | 23.4 | inactive
CATSPER1 (cation channel sperm associated 1) | 2 | 0.0547 | 3.35 | inactive
CATSPER1 (cation channel sperm associated 1) | 3 | -0.486 | -0.453 | inactive
HYAL4 (hyaluronidase 4) | 1 | -1.14 | -5.04 | inactive
HYAL4 (hyaluronidase 4) | 2 | 0.114 | 3.77 | inactive
HYAL4 (hyaluronidase 4) | 3 | -0.655 | -1.64 | inactive
CCDC40 (coiled-coil domain 40 molecular ruler complex subunit) | 1 | -0.194 | 1.6 | inactive
CCDC40 (coiled-coil domain 40 molecular ruler complex subunit) | 2 | 1.16 | 11.1 | inactive
CCDC40 (coiled-coil domain 40 molecular ruler complex subunit) | 3 | -1.09 | -4.7 | inactive
COL4A6 (collagen type IV alpha 6 chain) | 1 | -0.368 | 0.376 | inactive
COL4A6 (collagen type IV alpha 6 chain) | 2 | -0.259 | 1.14 | inactive
COL4A6 (collagen type IV alpha 6 chain) | 3 | -0.217 | 1.44 | inactive

Laid out differently: entries from further up
AFP (alpha fetoprotein) #1 — G2 robust z-score = -0.952; G2 cells, % of GMNN control = -3.73; call = inactive
AFP (alpha fetoprotein) #2 — G2 robust z-score = 1.7; G2 cells, % of GMNN control = 14.9; call = inactive
AFP (alpha fetoprotein) #3 — G2 robust z-score = 0.784; G2 cells, % of GMNN control = 8.49; call = inactive
DCAF10 (DDB1 and CUL4 associated factor 10) #1 — G2 robust z-score = -0.782; G2 cells, % of GMNN control = -2.54; call = inactive
